# Results of single-concentration screens

Protein sequences, listed by entry. Tags and fused reporters are not part of them.
UniProt P9WPC5, whole entry: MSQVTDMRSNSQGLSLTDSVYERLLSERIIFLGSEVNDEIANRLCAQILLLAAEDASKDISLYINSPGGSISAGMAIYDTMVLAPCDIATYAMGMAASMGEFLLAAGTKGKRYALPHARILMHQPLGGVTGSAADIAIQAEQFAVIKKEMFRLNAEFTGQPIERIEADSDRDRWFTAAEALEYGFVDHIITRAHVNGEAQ
UniProt P9WPC3, whole entry partner: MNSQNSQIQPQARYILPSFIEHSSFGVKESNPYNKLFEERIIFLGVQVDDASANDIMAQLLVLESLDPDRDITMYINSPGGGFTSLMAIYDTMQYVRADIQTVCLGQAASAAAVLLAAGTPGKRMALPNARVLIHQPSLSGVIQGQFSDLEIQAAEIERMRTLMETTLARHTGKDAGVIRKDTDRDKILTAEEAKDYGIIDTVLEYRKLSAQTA

Source: ChEMBL document CHEMBL3988442, “University of Dundee, Small-Polar-MMV Screening Library” (2021).

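Protease assay of ClpP1P2, read by the AMC dye that it sets free. Target: ClpP1P2, Mycobacterium tuberculosis (UniProt P9WPC5 and UniProt P9WPC3). Tested at 50 µM. Direction is inferred from only a few compounds that gave an IC50; most scored high, so higher reads as stronger inhibition. Most other retested compounds had strongly negative values. Of about 69,000 compounds tested this way, about 10 (0.015%) reached 50% or more in at least one test.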

Each number is a percent effect as filed. How 0% and 100% were set is not recorded. Most values in the screen are low, and negative values occur. Compounds were drawn at random from those tested, without regard to their results.

SMILES	Percent Effect
CCn1ccnc1CNCC(c1ccc(C)s1)N1CCOCC1 (centres unmarked)	-5.686
Cc1cnc(N2CCC3(CC2)CC3C(=O)NCC2CC2)nc1 (centres unmarked)	-3.159
Cc1ccsc1C(=O)N1CC(C(=O)N2CCOCC2)C2(CCOCC2)C1 (centres unmarked)	-10.87
O=C(c1cscn1)N1C[C@@H](Oc2cccnc2)[C@H]2OCCC[C@H]21	8.204
Clc1ccc(C(CNCc2cccnc2)n2cccn2)cc1 (centres unmarked)	-18.12
O=C(CN1CCOC(CNc2cccnn2)C1)NCc1ccccn1 (centres unmarked)	17.75
OCC1CCCN1c1cc(NCc2cccnc2)ncn1 (centres unmarked)	-10.87
CCCS(=O)(=O)N1CCOC2(CCCN(Cc3ccccn3)C2)C1 (centres unmarked)	6.467
CC(=O)N1C[C@@H]2CC[C@H](C1)N(S(=O)(=O)c1cc(F)ccc1C)C2	-4.026
CS(=O)(=O)NCCCNc1ccc(C(F)(F)F)cc1C#N	3.338
COc1cccc(-c2noc(CN3CCOCC3C)n2)c1 (centres unmarked)	-11.91
O=C(CC1CC1)NCc1cn2c(n1)CN(Cc1cccnc1)CC2	-8.591
COc1c(CNC2CCc3cc(F)ccc32)c(C)nn1C (centres unmarked)	-7.161
Cc1nc(-c2ccccc2)ccc1C(=O)N1CCN(CCO)CC1	-0.8154
COCCC1(CO)CCCN(C(=O)CCC(F)(F)F)C1 (centres unmarked)	-16.23
CC(NC(=O)NCCCn1ccnc1)c1ccc2c(c1)OCCCO2 (centres unmarked)	-3.33
O=C(c1cnccn1)N1CC[C@H]2[C@@H]1CCC(=O)N2c1cccnc1	1.237
CCCn1ncc(CN2C[C@@H]3CCCN3C[C@@H]2CCSC)c1C	7.33
Cc1nc(CN(C)C(=O)Nc2cccc(COC(C)C)c2)no1	-4.722
CC(=O)c1cccc(C(=O)N2C[C@@H](CN3CCCCCC3)[C@@H](CO)C2)c1	-10.31
CNC(=O)CN(C)c1nc(-c2ccncc2)nc2c1CCN(C(C)=O)C2	-14.27
O=C(c1cc(F)ccc1F)C1CCN(C(=O)c2cnccn2)CC1	-55.51
CN1CCO[C@H]2CN(S(=O)(=O)c3ccc(C#N)cc3)C[C@H]21	10.16
Cc1cc(CN2CCCC(Cn3cncn3)C2)no1 (centres unmarked)	1.414
CCOCCN1CCN(Cc2coc(-c3cccc(F)c3)n2)CC1	7.53
Cc1n[nH]c(C)c1CCN(C)C(=O)c1ccc(CN2CCCCC2)cc1	5.435
Cc1noc(C(C)C)c1C(=O)NCc1cc(F)cc(F)c1	-6.102
O=S1(=O)CCC(NCCn2cncc2-c2ccc3c(c2)CCCO3)C1 (centres unmarked)	-10.01
Cn1cc(CN2C[C@@H]3CCCO[C@@H]3[C@H](NC(=O)CC3CC3)C2)cn1	4.014
CN(C)C(=O)c1nc2c(s1)CCCN2Cc1ccccc1	-2.088
CCc1nnc(CNC(=O)CCCN2CCCCC2)s1	-12.66
CN(C)C(=O)N1CCCC2(CCN(c3ccsc3)C2=O)C1 (centres unmarked)	1.872
CCCN1CCN(C(=O)c2cnc(C)nc2)[C@H]2CS(=O)(=O)C[C@H]21	5.852
CC(C)c1ccc(-n2cc(O)c(C(=O)O)n2)cc1	-2.491
CN(CC1COc2ccccc2O1)C(=O)NCCCn1cncn1 (centres unmarked)	11.84
COCCn1cnc2ccc(NC(=O)c3c(C)noc3C)cc2c1=O	10.4
CS(=O)(=O)N[C@@H]1CN(Cc2ccc3ccccc3c2)C[C@H]1O	-20.27
CSCC[C@@H](CO)Nc1ccc(-c2nc(C3CC3)no2)cn1	-17.51
O=C(NCC(O)(c1ccco1)C1CC1)c1c(F)cccc1Cl (centres unmarked)	-9.56
O=C1C(N2CCOC3(CCCC3)C2)CCN1C1CC1 (centres unmarked)	-4.983
Cc1nn(C)c(=O)c2nn(-c3ccc(Cl)cc3)c(C)c12	-9.771
COc1ccc(NC(=O)C2CCOC2)c(N2CCN(C(C)=O)CC2)n1 (centres unmarked)	-0.07051
O=C(CCOc1ccc(Br)cc1)N1CCN(c2cnccn2)CC1	-20.39
COc1ncc(C(=O)NCc2ccc(Br)cc2)cn1	0.247
Nc1nc(C2CCN(C(=O)c3cnco3)CC2)cs1	-1.78
CCc1cnc(N2C[C@@H]3[C@@H](C(=O)NC(C)C)CCS(=O)(=O)[C@@H]3C2)nc1	-6.352
Cc1cc(C(=O)NC2CCCOc3cc(Cl)ccc32)n(C)n1 (centres unmarked)	-10.94
CCCn1nc2c(cc1=O)CN(CC(=O)N(C)c1nccs1)CC2	-256
O=C(CN1CCCC1Cn1cncn1)Nc1cccnc1 (centres unmarked)	9.026
O=C1CO[C@@H]2CN(Cc3cccs3)C[C@H]2N1Cc1cccnc1	0.5895
Nc1ncccc1C(=O)NCc1ccc(Br)cc1	4.716
O=C1CC[C@@H](C(=O)N2CCc3[nH]nc(COc4cccc(Cl)c4)c3C2)N1	-2.403
Cc1occc1C(=O)N1CCCS1(=O)=O	-2.565
CN(Cc1nccn1C)C(CO)c1cccc(Br)c1 (centres unmarked)	-12.38
COC(=O)CCC(=O)NCc1cccnc1N1CCc2ccccc2C1	-3.016
CCn1nc(-c2ccccc2F)ccc1=O	-16.75
O=C(O)CCC(=O)N1CCC(c2noc3cc(F)ccc23)CC1	10.93
CCCN1CC2(CCN(C)CC2)CC1C(=O)NCCn1cc(C)cn1 (centres unmarked)	5.355
c1coc(CN2CCCC3(COCCN(Cc4c[nH]nn4)C3)C2)c1 (centres unmarked)	-0.6551
Cc1nc(-c2nnc[nH]2)sc1C(=O)N1CCCC(C(F)(F)F)C1 (centres unmarked)	-3.698
c1cncc(OCCCNC2COc3ccccc3C2)c1 (centres unmarked)	-5.763
Cn1cc(C2CC(=O)NC23CCN(C(=O)C2CC=CC2)CC3)cn1 (centres unmarked)	-6.457
CC(Oc1ccc(C(=O)NCCNS(C)(=O)=O)cn1)c1ccccc1 (centres unmarked)	-11.33
CCc1ncnc2c1CCN(CCOC)CC2	-4.98
CNC(=O)[C@@H]1[C@@H](c2ccccc2)CN2CCN(Cc3ccco3)C[C@H]12	-8.391
COc1ccsc1C(=O)N1CCCN(Cc2cscn2)CC1	-49.68
c1cncc(CNCc2cccs2)c1	-4.907
CCC(CN1CCCCC1)NC(=O)C1(c2ccc(F)cc2)CC1 (centres unmarked)	-18.23
COc1ccc(Cn2cc(C(=O)N(C)CCN(C)C)nn2)cc1	0.679
CS(=O)(=O)NCC1CCN(C(=O)Oc2ccccc2)CC1	-7.761
CNS(=O)(=O)c1cccc(C(C)NCc2ccco2)c1 (centres unmarked)	-4.134
CCCc1nnc(N2CCC(N3CCCC3)CC2)o1	3.561
Cc1nn(-c2ccc(C(=O)O)cc2)c2c1C(CC(C)C)SCC(=O)N2 (centres unmarked)	-12.12
OCCn1cc(CN2CCN(CCOc3cccc(F)c3)CC2)cn1	-23.48
O=C(CCSc1ccccc1F)NCc1cccnc1	5.916
CCn1ncc2c1C(COCC1CC1)CN(c1ccncn1)C2 (centres unmarked)	-2.783
Cc1cc(C2CCCN2CCCS(=O)(=O)c2ccccc2)no1 (centres unmarked)	7.155
CCN1CCC(NC(=O)CN2CCCCC2Cn2cncn2)CC1 (centres unmarked)	10.73
Cc1noc([C@@]23CCO[C@@H]2CCN(C(=O)C2CCOCC2)C3)n1	3.129
O=C(CN1CCCC1)N1CCCC(c2cc(=O)n3c(n2)CCCCC3)C1 (centres unmarked)	-3.956
O=C(c1ccc(-n2cnnc2)nc1)N1CCCC(O)(CO)CC1 (centres unmarked)	-4.579
CCN1C[C@@H]2CN(c3cc(OC)ncn3)CCC[C@]2(C(=O)O)C1	-2.817
COc1cccc2sc(N3CCN(C(=O)c4cc(C)on4)CC3)nc12	-3.635
Cc1cc(=O)n(C)cc1NC(=O)NCc1cccc(F)c1	2.527
CN(C)CCN1CCOCC2(CCCN(C(=O)c3ccccn3)C2)C1 (centres unmarked)	-14.22
CC1CCc2c(c3ccccc3[nH]c2=O)O1 (centres unmarked)	22.98
CC(=O)N1Cc2cnc(C(C)(C)C)nc2C1	8.045
Cc1csc(S(=O)(=O)N2CCN(C)C3(CCC(=O)N(C)CC3)C2)c1 (centres unmarked)	-15.41
CN(Cc1ccccc1)CC(O)Cn1cnc2c(Cl)cc(Cl)cc2c1=O (centres unmarked)	-24.53
CN(Cc1ccncc1)c1cncc(Br)c1	-10.75

The last 8 entries again:

SMILES	Percent Effect
COc1cccc2sc(N3CCN(C(=O)c4cc(C)on4)CC3)nc12	-3.635
Cc1cc(=O)n(C)cc1NC(=O)NCc1cccc(F)c1	2.527
CN(C)CCN1CCOCC2(CCCN(C(=O)c3ccccn3)C2)C1 (centres unmarked)	-14.22
CC1CCc2c(c3ccccc3[nH]c2=O)O1 (centres unmarked)	22.98
CC(=O)N1Cc2cnc(C(C)(C)C)nc2C1	8.045
Cc1csc(S(=O)(=O)N2CCN(C)C3(CCC(=O)N(C)CC3)C2)c1 (centres unmarked)	-15.41
CN(Cc1ccccc1)CC(O)Cn1cnc2c(Cl)cc(Cl)cc2c1=O (centres unmarked)	-24.53
CN(Cc1ccncc1)c1cncc(Br)c1	-10.75